Measured values from PubChem BioAssay AID2685 (National Center for Advancing Translational Sciences (NCATS), 2010).
This is one part of the list. The main result of the screen is listed elsewhere. These columns were measured beside it and carry no call. Compounds called inactive in the main read-out are mostly missing here. Words in brackets tell the shape of the fitted curve; partial curves, single points and poor fits give uncertain potencies.

Assay: qHTS Assay for Lipid Storage Modulators in Drosophila S3 Cells;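 as to cell number change: cells counted by Cell Tracker Red CMTPX staining in the red channel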
Conditions: BODIPY lipid droplet fluorescence, 18-24 h; for cell number change: measured here: cell count max response, cells fed with added oleic acid
Method in brief: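 Drosophila S3 cells got compounds at several concentrations plus oleic acid (400 uM solution). Laser-scanning cytometry with 488 nm excitation read lipid droplets at 500-530 nm and cells at 575-640 nm. Percent activity was relative to 20 uM Triacsin C.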

[1] = measured here: cell number channel AC50, cells fed with added oleic acid
[2] = measured here: lipid fluorescence (Fed channel) AC50, cells fed with added oleic acid

Row | Compound | cell number change [%] | AC50 [1] | AC50 [2]
1 | COc1ccc(N2C(=O)c3ccccc3C2O)cc1 (stereo not given) | 16.4 | 6.51 µM [rising, single point] | –
2 | Cc1nc2ccc(C(=O)c3ccccc3)cc2[nH]1 | 250 | 16.4 µM [rising, partial curve] | 8.2 µM [rising, partial curve]
3 | CCOC(=O)N/N=C/c1c(F)cccc1F | 15.6 | – | 0.82 µM [rising, full curve, poor fit]
4 | Cc1cnc(C(=O)Nc2nnc(C3CC3)s2)cn1 | -0.621 | – | 6.51 µM [rising, single point]
5 | O=c1c2ccccc2ncn1Cc1ccc(Cl)c(Cl)c1 | -31.5 | 29.1 µM [falling, single point] | –
6 | Cc1ccc(S(=O)(=O)NC(CC(C)C)C(=O)N2CCCCCCC2)cc1 (stereo not given) | -18.5 | – | –
7 | COc1ccccc1C(=O)N1CCN(S(=O)(=O)c2ccccc2)CC1 | -6.06 | – | 0.291 µM [rising, partial curve, poor fit]
8 | CN1CCCCc2c1[nH]c1ccccc1c2=O | -0.811 | – | 2.91 µM [falling, partial curve, poor fit]
9 | COc1ccc(CC(=O)NC2CC(C)(C)NC(C)(C)C2)cc1OC | -13.5 | – | 0.00517 µM [falling, full curve, poor fit]
10 | COc1ccc2oc(C(=O)OCC(=O)NCc3ccc(OC)c(OC)c3)c(C)c2c1 | 15.5 | – | –
11 | COc1ccc(S(=O)(=O)Nc2cc(C(=O)NCCC(C)C)ccc2N2CCOCC2)cc1 | 19.1 | 0.146 µM [rising, full curve, poor fit] | 0.291 µM [rising, full curve]
12 | N=C1/C(=C\c2ccc(-c3ccc(C(=O)O)cc3)o2)C(=O)N=C2SC=C(c3ccccc3)N12 | 47.8 | – | –
13 | Cc1ccc(C(=O)NC(=S)/C=C2\N(C)c3ccccc3C2(C)C)cc1 | -58.2 | 23.1 µM [falling, single point] | 20.6 µM [falling, single point]
14 | Fc1nc(F)c(F)c(NCCCNc2c(F)c(F)nc(F)c2F)c1F | -1.41 | – | 0.146 µM [rising, full curve, poor fit]
15 | CC12CCC(C(=O)NCCN3CCCCC3)(CC1=O)C2(C)C (stereo not given) | -10.6 | – | 8.2 µM [falling, single point]
16 | Cc1nc(-c2ccccc2)nc(-c2ccccc2)n1 | -34.3 | 18.4 µM [falling, single point] | 0.092 µM [falling, full curve, poor fit]
17 | CC(C#N)(NC(=O)CN1CCN(S(=O)(=O)c2ccccc2Cl)CC1)C1CC1 (stereo not given) | 13.6 | – | 29.1 µM [rising, single point]

Ordered by heavy-atom count (low to high): some entries from above
Row | Compound | cell number change [%] | AC50 [1] | AC50 [2]
8 | CN1CCCCc2c1[nH]c1ccccc1c2=O | -0.811 | – | 2.91 µM [falling, partial curve, poor fit]
16 | Cc1nc(-c2ccccc2)nc(-c2ccccc2)n1 | -34.3 | 18.4 µM [falling, single point] | 0.092 µM [falling, full curve, poor fit]
7 | COc1ccccc1C(=O)N1CCN(S(=O)(=O)c2ccccc2)CC1 | -6.06 | – | 0.291 µM [rising, partial curve, poor fit]
